Assay results published in publication PMC9800732.
No constants are given. Whether binding was seen depends on the method and setting. Binding seen in cells or lysates may run through a third protein. Some binding calls cover weakened binding; strength is not graded here.

Assays:
[1] = molecular target: Slit-Roundabout (Robo) GTPase-activating protein 2 (srGAP2) (human (endogenous in fresh human TNBC tissue)) (UniProt O75044); experiment: co-IP; endogenous proteins in fresh human TNBC tissue; 0.5% NP-40 lysis buffer (50 mM Tris-HCl pH 8.0, 150 mM NaCl, 1 mM DTT), primary antibody 8 h then Protein-A beads 4 h at 4 °C
[2] = molecular target: PKCα (human (endogenous in fresh human TNBC tissue and TNBC cells)) (UniProt P17252); experiment: co-IP; TNBC cells treated with 240 mOsm hypotonic medium for 300 s; endogenous PKCα immunoprecipitated, SDC4 detected by western blot; 0.5% NP-40 lysis buffer, Protein-A beads, 4 °C
[3] = molecular target: PKCα (human (endogenous in fresh human TNBC tissue and TNBC cells)) (UniProt P17252); experiment: co-IP; TNBC cells treated with isotonic or hypotonic (260~280 mOsm) medium for 300 s; endogenous PKCα immunoprecipitated, SDC4 detected by western blot; 0.5% NP-40 lysis buffer, Protein-A beads, 4 °C

With “PKCα (from UniProt P17252 1-672) (enzyme)” the binding [1] was “binds”.

B1: Syndecan-4 (SDC4) (receptor, UniProt P31431 19-198)
chain: ESIRETEVIDPQDLLEGRYFSGALPDDEDVVGPGQESDDFELSGSGDLDDLEDSMIGPEVVHPLVPLDNHIPERAGSGSQVPTEPKKLEENEVIPKRISPVEESEDVSNKVSMSSTVQGSNIFERTEVLAALIVGGIVGILFAVFLILLLMYRMKKKDEGSYDLGKKPIYKKAPTNEFYA
With B1 the binding [2] was “no binding (condition: 240 mOsm hypotonic medium)” and the binding [3] was “binds”.
